These are yes or no findings as the source states them, for the method shown. In cells and extracts the contact can be indirect. Some entries that bind do so weakly or less than the wild type.
Molecular target: Methyl CpG-binding protein 2 (MeCP2) (human (endogenous in glioma cells)) (UniProt P51608)
Test: co-IP; endogenous proteins in glioma cells; complexes precipitated with protein A/G agarose, western blot with anti-MeCP2 and anti-SUV39H1; done in both directions

Protein sequences, listed by entry. Tags and fused reporters are not part of them.
UniProt P51608: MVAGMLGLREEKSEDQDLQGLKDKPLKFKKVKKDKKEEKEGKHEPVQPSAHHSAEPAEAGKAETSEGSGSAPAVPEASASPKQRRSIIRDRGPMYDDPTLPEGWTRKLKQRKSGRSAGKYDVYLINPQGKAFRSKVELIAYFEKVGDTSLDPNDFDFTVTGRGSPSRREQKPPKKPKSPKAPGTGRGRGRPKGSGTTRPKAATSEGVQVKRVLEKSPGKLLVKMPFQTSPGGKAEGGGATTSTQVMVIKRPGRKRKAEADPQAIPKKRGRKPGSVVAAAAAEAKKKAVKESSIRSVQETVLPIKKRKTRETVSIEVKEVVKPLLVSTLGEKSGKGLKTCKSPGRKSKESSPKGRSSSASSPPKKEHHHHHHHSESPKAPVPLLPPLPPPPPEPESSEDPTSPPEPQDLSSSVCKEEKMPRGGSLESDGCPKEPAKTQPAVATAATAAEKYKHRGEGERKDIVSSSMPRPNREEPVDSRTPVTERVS

binding: binds
B1: suppressor of variegation 39H1 (SUV39H1) (protein, UniProt O43463 1-412)
chain: MAENLKGCSVCCKSSWNQLQDLCRLAKLSCPALGISKRNLYDFEVEYLCDYKKIREQEYYLVKWRGYPDSESTWEPRQNLKCVRILKQFHKDLERELLRRHHRSKTPRHLDPSLANYLVQKAKQRRALRRWEQELNAKRSHLGRITVENEVDLDGPPRAFVYINEYRVGEGITLNQVAVGCECQDCLWAPTGGCCPGASLHKFAYNDQGQVRLRAGLPIYECNSRCRCGYDCPNRVVQKGIRYDLCIFRTDDGRGWGVRTLEKIRKNSFVMEYVGEIITSEEAERRGQIYDRQGATYLFDLDYVEDVYTVDAAYYGNISHFVNHSCDPNLQVYNVFIDNLDERLPRIAFFATRTIRAGEELTFDYNMQVDPVDMESTRMDSNFGLAGLPGSPKKRVRIECKCGTESCRKYLF
